This data set in a line: peptide synthesis. The following applies: conjugation step.

Turning to C-GFTQPETGTDNDLWSVDNEK, the conjugation yield is on record as 68%.
